Drawing on paper PMC10978910, this text covers binding for three substances.

By UniProt entry, the sequences of proteins in these tests, tags left out.
UniProt Q9FIJ0: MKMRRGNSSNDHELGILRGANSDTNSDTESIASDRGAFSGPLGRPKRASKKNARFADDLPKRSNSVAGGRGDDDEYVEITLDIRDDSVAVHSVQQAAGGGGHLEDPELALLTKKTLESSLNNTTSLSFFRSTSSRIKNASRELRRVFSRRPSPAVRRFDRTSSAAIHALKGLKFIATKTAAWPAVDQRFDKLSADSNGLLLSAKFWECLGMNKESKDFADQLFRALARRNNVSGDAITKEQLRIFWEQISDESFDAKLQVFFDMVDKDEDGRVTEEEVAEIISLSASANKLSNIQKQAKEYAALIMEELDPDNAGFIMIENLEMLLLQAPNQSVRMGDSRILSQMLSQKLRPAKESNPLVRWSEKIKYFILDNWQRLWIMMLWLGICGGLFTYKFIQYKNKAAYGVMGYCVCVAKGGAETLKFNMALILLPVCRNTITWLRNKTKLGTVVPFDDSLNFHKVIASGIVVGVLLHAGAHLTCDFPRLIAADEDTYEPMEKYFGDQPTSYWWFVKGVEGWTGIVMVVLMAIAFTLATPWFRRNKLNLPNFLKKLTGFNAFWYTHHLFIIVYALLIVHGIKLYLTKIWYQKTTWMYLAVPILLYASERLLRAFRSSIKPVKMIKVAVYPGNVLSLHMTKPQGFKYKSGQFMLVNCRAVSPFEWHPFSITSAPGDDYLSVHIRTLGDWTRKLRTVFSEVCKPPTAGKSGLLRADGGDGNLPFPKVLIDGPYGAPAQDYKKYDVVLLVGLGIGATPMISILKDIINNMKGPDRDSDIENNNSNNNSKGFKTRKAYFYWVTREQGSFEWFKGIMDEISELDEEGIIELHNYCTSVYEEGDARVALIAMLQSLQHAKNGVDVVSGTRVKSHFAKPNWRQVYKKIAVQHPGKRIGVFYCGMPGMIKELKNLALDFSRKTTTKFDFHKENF

Assay [1] concerns the target T1, BD-ALR1 (pBT3-STE-ALR1) (Arabidopsis thaliana) (UniProt Q9ZVR7).
T1 sequence: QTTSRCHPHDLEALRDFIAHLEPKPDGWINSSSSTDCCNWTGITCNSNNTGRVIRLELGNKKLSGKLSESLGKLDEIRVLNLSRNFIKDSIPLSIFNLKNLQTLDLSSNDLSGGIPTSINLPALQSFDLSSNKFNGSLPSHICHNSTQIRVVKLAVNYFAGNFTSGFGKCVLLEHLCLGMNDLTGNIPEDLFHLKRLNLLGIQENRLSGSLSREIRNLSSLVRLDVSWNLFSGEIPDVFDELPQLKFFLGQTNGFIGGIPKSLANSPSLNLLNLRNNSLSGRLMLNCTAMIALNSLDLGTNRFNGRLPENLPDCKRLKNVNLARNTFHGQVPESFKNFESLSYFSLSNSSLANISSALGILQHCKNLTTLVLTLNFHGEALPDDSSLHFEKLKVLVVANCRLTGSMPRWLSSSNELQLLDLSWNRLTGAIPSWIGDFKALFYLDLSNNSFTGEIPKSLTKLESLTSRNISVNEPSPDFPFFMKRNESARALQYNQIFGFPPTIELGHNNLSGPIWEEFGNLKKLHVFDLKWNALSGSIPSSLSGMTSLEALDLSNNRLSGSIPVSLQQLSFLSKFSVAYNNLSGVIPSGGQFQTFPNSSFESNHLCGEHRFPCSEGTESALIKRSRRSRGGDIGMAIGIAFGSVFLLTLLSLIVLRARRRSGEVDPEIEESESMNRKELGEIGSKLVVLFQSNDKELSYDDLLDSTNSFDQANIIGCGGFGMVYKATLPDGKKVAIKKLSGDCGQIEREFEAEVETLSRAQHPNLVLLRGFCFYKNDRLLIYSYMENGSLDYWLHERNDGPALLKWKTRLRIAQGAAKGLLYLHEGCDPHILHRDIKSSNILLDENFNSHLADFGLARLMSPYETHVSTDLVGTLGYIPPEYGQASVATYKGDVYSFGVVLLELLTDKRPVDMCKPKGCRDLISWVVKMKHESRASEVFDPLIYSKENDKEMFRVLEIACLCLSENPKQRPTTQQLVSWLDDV
Kind of assay: two-hybrid; split-ubiquitin membrane yeast two-hybrid screen for ALR1 interactants; 18 potential interactors.

The target in assay [2] is T1, BD-ALR1 (pBT3-STE-ALR1) (Arabidopsis thaliana). The assay can be described thus: two-hybrid; split-ubiquitin membrane yeast two-hybrid, BD-ALR1 (pBT3-STE) co-transformed with AD preys (pPR3-N) into NMY51; growth on SD -Ade/His/Leu/Trp.
Assay [3] addresses T2, ALR1-nYFP (Arabidopsis thaliana) (UniProt Q9ZVR7).
T2 sequence: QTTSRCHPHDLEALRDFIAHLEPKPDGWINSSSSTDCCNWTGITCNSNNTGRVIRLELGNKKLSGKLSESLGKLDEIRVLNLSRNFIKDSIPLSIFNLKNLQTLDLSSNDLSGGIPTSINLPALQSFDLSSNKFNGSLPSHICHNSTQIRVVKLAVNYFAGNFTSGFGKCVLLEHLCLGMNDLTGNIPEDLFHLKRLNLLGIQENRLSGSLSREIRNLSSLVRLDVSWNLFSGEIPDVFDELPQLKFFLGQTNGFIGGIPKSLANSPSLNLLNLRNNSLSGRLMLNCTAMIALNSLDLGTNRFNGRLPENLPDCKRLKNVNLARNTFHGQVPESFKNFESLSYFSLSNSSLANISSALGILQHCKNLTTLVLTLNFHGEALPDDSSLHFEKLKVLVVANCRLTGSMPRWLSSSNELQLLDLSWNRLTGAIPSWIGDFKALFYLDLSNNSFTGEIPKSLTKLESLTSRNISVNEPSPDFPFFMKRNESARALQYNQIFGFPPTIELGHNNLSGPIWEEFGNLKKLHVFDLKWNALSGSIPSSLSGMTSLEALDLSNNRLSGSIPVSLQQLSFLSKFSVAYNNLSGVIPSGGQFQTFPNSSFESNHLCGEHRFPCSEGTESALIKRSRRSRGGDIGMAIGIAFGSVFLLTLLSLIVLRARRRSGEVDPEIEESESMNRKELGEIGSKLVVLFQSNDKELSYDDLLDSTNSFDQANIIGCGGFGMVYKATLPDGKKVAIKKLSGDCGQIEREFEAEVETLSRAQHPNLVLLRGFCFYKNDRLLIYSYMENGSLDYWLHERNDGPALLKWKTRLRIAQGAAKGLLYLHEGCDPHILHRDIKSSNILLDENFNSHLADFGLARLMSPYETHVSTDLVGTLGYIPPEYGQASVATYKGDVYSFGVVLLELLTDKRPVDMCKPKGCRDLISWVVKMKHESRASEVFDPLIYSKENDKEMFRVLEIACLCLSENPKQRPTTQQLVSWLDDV
The assay can be described thus: split reporter; BiFC (nYFP/cYFP) in Arabidopsis mesophyll protoplasts, 10-12 h in W5 solution; control, 50 µM AlCl3 or 50 µM LaCl3 for 10 min before detection.

Assay [4] deals with T3, ALR1-nLUC (Arabidopsis thaliana) (UniProt Q9ZVR7).
T3 sequence: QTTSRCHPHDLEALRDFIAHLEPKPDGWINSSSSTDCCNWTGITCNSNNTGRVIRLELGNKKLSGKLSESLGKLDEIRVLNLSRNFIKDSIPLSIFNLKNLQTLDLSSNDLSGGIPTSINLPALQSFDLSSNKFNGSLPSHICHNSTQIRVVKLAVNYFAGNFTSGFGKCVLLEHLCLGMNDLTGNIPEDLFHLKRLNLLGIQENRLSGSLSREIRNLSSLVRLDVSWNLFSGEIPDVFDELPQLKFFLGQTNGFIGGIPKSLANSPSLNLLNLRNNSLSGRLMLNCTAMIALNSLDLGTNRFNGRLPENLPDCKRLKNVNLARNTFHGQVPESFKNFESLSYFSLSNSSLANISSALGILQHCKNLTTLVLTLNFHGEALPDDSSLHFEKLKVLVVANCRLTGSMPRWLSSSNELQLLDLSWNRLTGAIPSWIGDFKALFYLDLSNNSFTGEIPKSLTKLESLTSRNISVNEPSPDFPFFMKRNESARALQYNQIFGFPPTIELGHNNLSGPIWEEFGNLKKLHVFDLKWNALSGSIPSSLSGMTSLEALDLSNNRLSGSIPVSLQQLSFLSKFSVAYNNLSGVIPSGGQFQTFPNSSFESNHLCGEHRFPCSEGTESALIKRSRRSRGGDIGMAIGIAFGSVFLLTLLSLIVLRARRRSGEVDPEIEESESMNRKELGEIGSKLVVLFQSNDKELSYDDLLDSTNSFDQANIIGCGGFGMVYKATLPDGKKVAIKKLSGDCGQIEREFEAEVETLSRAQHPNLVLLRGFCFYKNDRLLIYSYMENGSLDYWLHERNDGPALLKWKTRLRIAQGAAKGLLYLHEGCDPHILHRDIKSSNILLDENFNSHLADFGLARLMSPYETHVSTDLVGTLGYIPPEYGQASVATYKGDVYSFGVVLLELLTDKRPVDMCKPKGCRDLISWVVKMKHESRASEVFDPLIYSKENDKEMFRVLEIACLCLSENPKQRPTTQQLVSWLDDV
The assay can be described thus: split reporter; split luciferase complementation; 35S:cLUC-Rboh and 35S:ALR1-nLUC co-infiltrated into N. benthamiana leaves, imaged 48 h after infiltration.

No constants are given. Whether binding was seen depends on the method and setting. For some of these results: Binding seen in cells or lysates may run through a third protein. Some binding calls cover weakened binding; strength is not graded here. Sequences can lack the tags named with a protein.

Consider “AD-RbohD (pPR3-N-RbohD) (from UniProt Q9FIJ0 1-921) (enzyme)”, for which the binding result in assay [1] and in assay [2] was “binds” throughout.

In the case of “RbohD-cYFP (from UniProt Q9FIJ0 1-921) (enzyme)”, the binding entry in assay [3] is reported as “binds”.

As to “cLUC-RbohD (from UniProt Q9FIJ0 1-921) (enzyme)”, the binding entry in assay [4] is given as “binds”.
